The source of these data is article PMC4168999.

This experiment concerns the target T1, HEATR2 (human (endogenous in normal human bronchial epithelial cells)) (UniProt Q86Y56).
T1 sequence: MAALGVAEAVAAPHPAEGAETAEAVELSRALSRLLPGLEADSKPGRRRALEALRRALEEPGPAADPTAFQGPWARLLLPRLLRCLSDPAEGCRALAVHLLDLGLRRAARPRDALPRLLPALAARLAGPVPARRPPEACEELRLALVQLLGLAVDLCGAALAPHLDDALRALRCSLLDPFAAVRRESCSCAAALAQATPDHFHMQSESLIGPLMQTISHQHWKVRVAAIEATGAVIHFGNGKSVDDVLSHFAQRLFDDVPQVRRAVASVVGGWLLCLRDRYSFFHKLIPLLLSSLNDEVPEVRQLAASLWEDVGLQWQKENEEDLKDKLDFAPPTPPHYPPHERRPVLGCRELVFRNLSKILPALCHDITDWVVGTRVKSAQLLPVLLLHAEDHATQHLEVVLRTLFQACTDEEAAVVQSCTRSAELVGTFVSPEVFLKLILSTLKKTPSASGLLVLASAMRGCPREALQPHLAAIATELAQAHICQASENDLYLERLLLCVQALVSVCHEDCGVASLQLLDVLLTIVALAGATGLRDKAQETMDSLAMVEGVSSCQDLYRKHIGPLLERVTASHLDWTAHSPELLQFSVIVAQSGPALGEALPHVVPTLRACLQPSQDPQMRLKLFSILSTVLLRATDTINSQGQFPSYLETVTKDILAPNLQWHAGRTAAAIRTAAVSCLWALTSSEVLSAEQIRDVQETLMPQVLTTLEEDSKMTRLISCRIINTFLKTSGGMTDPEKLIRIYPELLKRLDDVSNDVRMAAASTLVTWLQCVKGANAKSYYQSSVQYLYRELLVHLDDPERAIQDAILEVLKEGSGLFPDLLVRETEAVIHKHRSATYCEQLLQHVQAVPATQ
The experiment is described as follows: co-IP; endogenous HEATR2 precipitated with anti-HEATR2 (Proteintech) from whole cell lysates of terminally differentiated normal human bronchial epithelial cells (40 days post-ALI); control rabbit IgG (GFP); lysis buffer 50 mM Tris-HCl pH 7.5, 100 mM NaCl, 10% glycerol, 0.5 mM EDTA, 0.5% IGEPAL, 0.15% Triton-X 100; overnight at 4°C; Dynabeads G; immunoblot.

No constants are given. Whether binding was seen depends on the method and setting. In cells and extracts the contact can be indirect.

As for HSP70, the binding result was “no binding”.
